Data from PubChem BioAssay AID2685 (National Center for Advancing Translational Sciences (NCATS), 2010).
The other results are listed elsewhere or left out. Shown are side measurements of this screen, not its main read-out; they come without a call. Most of these compounds were active or inconclusive in the main read-out, so they are no random draw. Words in brackets tell the shape of the fitted curve; partial curves, single points and poor fits give uncertain potencies.

Experiment: qHTS Assay for Lipid Storage Modulators in Drosophila S3 Cells;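 on cell number change: cells counted by Cell Tracker Red CMTPX staining in the red channel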
Conditions: BODIPY lipid droplet fluorescence, 18-24 h; for cell number change: measured here: cell count max response, cells fed with added oleic acid
Method in brief: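 Drosophila S3 cells loaded with oleic acid (400 uM, as added) and compounds at several concentrations; lipid droplets imaged by 488-nm laser-scanning cytometry, 500–530 nm intensity and object ratio to cell channel. Percent activity normalized to 20 uM Triacsin C.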

[1] = measured here: lipid fluorescence (Fed channel) AC50, cells fed with added oleic acid
[2] = measured here: cell number channel AC50, cells fed with added oleic acid

| Structure (SMILES) | AC50 [1] | cell number change [%] | AC50 [2] |
| --- | --- | --- | --- |
| CCOC(=O)N1CCN(S(=O)(=O)c2ccc(OCC)c(C)c2)CC1 | 0.58 µM [rising, single point] |  |  |
| O=C(CNC(=O)OCc1ccccc1)NC1CCCCCCC1 | 5.17 µM [rising, single point] | -4.24 |  |
| Cc1cccc(C)c1NC(=O)CNC(=O)c1ccc(COc2ccccc2)cc1 | 0.231 µM [falling, full curve] | -47.4 | 32.6 µM [falling, partial curve, poor fit] |
| CSc1ccccc1NC(=O)CN(C)Cc1cccc(Cl)c1 | 29.1 µM [rising, partial curve, poor fit] | 52.6 | 29.1 µM [rising, single point] |
| CN(C)C(CNC(=O)CCc1nc2ccccc2s1)c1ccccc1 (configuration not stated) |  | 20.2 |  |
| CCCCNS(=O)(=O)c1ccc2nc(SCC(N)=O)[nH]c2c1 |  | -13.9 |  |
| O=C1Nc2ccccc2C12OCCO2 | 0.291 µM [falling, full curve, poor fit] | 1.57 |  |
| COc1ccccc1N1CCN(C(=O)CSc2ccc3c(C)cc(C)nc3n2)CC1 | 5.8 µM [rising, partial curve, poor fit] | 3.22 |  |
| COc1ccccc1N1CCN(CC(=O)N2N=CCC2c2ccccc2)CC1 (configuration not stated) | 29.1 µM [falling, single point] |  | 2.91 µM [rising, single point] |
| COCC(=O)N1CCC(Oc2ccc(C(=O)NCc3cc(C(C)C)no3)cc2)CC1 | 0.366 µM [falling, partial curve, poor fit] | -16.1 |  |
| CSc1nc2nc3c(c(=O)n2[nH]1)CN(Cc1ccccc1)CC3 | 9.2 µM [falling, partial curve] | -27.9 |  |
| Cc1ccc(C(C)NC(=O)c2ccc3c(c2)OCCO3)cc1C (configuration not stated) |  | 1.17 |  |
| CCN(CC)C(=O)CSc1nnc(-c2cccnc2)n1CCc1ccccc1 |  | -32 | 0.058 µM [falling, full curve, poor fit] |
| CC12CCC(C(=O)NNC(=O)c3ccccc3)(OC1=O)C2(C)C (configuration not stated) |  | -10 |  |
| CC(C)(C)OC(=O)N1CCC(CNC(=O)c2ccc(F)cc2)CC1 | 23.1 µM [falling, partial curve] | -47.7 | 18.4 µM [falling, single point] |
| Cn1cccc1C(=O)Nc1nc(-c2ccccn2)cs1 |  | 3.22 |  |
| Cc1ccc(-c2nnc(SCC(=O)Nc3ccc(S(=O)(=O)N4CCCCCC4)cc3)o2)cc1 |  | -14 |  |
| O=C(N/N=C/c1ccccc1)C(=O)N/N=C/c1ccccc1 | 5.17 µM [rising, full curve] | 18.5 |  |

Some entries already given, limited to cell number change [%] and AC50 [1].
Structure (SMILES),cell number change [%],AC50 [1]
CSc1nc2nc3c(c(=O)n2[nH]1)CN(Cc1ccccc1)CC3,-27.9,"9.2 µM [falling, partial curve]"
Cc1ccc(C(C)NC(=O)c2ccc3c(c2)OCCO3)cc1C (configuration not stated),1.17,
